# Experimental data taken from publication PMC8510580, “HspB8 prevents aberrant phase transitions of FUS by chaperoning its folded RNA-binding domain” (eLife, 2021).
# Sequences of proteins named here, by UniProt entry; tags and fusion partners are left off. A change or cut given only in a name is not applied to a line headed by its entry.
# UniProt P35637: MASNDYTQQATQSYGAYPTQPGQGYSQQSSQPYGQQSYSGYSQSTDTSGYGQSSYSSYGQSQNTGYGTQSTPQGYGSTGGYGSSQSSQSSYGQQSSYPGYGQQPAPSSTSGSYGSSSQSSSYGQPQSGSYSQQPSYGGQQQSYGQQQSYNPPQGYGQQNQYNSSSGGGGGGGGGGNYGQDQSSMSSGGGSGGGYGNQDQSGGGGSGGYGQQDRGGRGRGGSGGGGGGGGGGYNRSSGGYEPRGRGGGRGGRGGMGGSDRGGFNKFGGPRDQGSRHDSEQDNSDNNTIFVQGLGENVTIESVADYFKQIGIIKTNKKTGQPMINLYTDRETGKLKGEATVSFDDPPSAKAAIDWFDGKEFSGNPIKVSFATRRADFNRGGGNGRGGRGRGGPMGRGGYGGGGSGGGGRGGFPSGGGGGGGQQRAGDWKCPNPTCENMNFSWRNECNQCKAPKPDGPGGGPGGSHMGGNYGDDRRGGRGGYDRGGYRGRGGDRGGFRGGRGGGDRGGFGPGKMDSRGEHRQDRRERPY
# Results are given in words; binding and its absence hold for the method and conditions named.
# Assays:
# [1] = biological target: FUS-G156E-GFP (FUSm) (human) (UniProt P35637); assay: condition: only non-phase separating conditions (500 mM KCl); up to 120 µM HspB8; MST; 33 nM FUSm, partner titrated; non-phase separating conditions (500 mM KCl); both purified
# [2] = biological target: FUS-G156E-GFP (FUSm) (human) (UniProt P35637); assay: cross-linking; XL-MS of FUSm (or FUSm_K9) mixed with HspB8 outside condensates: dilute phase after centrifugation or high salt (500 mM); H12/D12 DSS, 30 min, 37°C; both purified
# [3] = biological target: FUS-G156E-GFP (FUSm) (human) (UniProt P35637); assay: cross-linking; XL-MS of FUSm (or FUSm_K9) mixed with the partner under condensate-inducing low salt (75 mM): low-salt mixture or dense phase separated by centrifugation; H12/D12 DSS, 30 min, 37°C; also 3 hr after formation and with an RNA oligonucleotide; both purified
binding [1],binding [3],Binder,binding [2]
no binding,–,"HspB8-WT (natural protein, UniProt Q9UJY1 1-196, looked up, small heat shock protein HspB8; IDR printed as AA1-71 and alpha-crystallin domain as AA72-196; The article's keywords name Human as organism; also called small heat shock protein HspB8; source: E. coli BL21 Codon RIL, purified (GST, PreScission cleavage, reverse GST, ResourceQ); not shown: GST, N-terminal, cleaved) MADGQMPFSCHYPSRLRRDPFRDSPLSSRLLDDGFGMDPFPDDLTASWPDWALPRLSSAWPGTLRSGMVPRGPTATARFGVPAEGRTPPPFPGEPWKVCVNVHSFKPEELMVKTKDGYVEVSGKHEEKQQEGGIVSKNFTKKIQLPAEVDPVTVFASLSPEGLLIIEAPQVPPYSTFGESSFNNELPQDSQEVTCT",no binding (condition: outside condensates (dilute phase))
–,no binding,"lactalbumin (protein, UniProt P00711 20-142) EQLTKCEVFRELKDLKGYGGVSLPEWVCTTFHTSGYDTQAIVQNNDSTEYGLFQINNKIWCKDDQNPHSSNICNISCDKFLDDDLTDDIMCVKKILDKVGINYWLAHKALCSEKLDQWLCEKL",–
